From US20200299408A1
Results are given in words; binding and its absence hold for the method and conditions named. Some entries that bind do so weakly or less than the wild type.

Assays:
[1] = target: WT pyroglu; experiment: phage ELISA: anti-CD3 antibody coated on the plate, dilution series of M13 phage displaying the CD3εγ variant, anti-M13-HRP, OD A450 (p-1389); [phage] axis 10^-3 to 10^0 without unit
[2] = target: WT GLN; experiment: as above

binding [1]: binds
binding [2]: binds
B1: hu38E4.v1 Fab (Fab, V domains shown)
VH: EVQLVQSGAEVKKPGASVKVSCKASGFTFTSYYIHWVRQAPGQGLEWIGWIYPENDNTKYNEKFKDRVTITADTSTSTAYLELSSLRSEDTAVYYCARDGYSRYYFDYWGQGTLVTVSS
VL: DIVMTQSPDSLAVSLGERATINCKSSQSLLNSRTRKNYLAWYQQKPGQSPKLLIYWTSTRKSGVPDRFSGSGSGTDFTLTISSLQAEDVAVYYCKQSFILRTFGQGTKVEIK
